Data reported in article PMC7971226.
No constants are given. Whether binding was seen depends on the method and setting. Binding seen in cells or lysates may run through a third protein. Some results given as binding are weak or reduced against the parent protein; the word gives no strength.

Protein sequences, listed by entry. Tags and fused reporters are not part of them.
UniProt Q05397: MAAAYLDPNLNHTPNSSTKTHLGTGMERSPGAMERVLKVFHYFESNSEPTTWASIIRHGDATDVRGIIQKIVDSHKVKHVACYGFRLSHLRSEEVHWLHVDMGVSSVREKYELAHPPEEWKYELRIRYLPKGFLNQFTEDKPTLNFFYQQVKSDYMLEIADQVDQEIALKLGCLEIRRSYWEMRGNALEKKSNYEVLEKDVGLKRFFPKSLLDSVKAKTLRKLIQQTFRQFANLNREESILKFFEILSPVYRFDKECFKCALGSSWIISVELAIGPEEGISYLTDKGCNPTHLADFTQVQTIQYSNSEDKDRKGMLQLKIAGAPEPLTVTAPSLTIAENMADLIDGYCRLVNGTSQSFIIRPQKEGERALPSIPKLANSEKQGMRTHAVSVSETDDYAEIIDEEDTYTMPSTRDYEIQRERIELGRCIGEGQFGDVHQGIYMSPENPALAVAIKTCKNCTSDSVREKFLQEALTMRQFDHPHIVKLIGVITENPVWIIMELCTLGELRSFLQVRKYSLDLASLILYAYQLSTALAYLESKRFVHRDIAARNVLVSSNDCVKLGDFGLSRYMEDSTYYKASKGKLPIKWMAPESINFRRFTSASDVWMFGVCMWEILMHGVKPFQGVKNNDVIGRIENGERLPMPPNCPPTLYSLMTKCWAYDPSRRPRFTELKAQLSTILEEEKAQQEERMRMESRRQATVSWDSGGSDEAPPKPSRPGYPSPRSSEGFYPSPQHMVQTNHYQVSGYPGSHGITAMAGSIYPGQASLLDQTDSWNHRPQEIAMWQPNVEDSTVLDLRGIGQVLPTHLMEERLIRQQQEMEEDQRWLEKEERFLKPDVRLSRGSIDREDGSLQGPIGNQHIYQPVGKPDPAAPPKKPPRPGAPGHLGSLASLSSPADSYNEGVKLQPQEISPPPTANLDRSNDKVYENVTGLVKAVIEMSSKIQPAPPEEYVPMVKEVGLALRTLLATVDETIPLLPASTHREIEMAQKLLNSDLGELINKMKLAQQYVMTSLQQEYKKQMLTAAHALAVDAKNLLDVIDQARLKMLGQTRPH
UniProt P05556: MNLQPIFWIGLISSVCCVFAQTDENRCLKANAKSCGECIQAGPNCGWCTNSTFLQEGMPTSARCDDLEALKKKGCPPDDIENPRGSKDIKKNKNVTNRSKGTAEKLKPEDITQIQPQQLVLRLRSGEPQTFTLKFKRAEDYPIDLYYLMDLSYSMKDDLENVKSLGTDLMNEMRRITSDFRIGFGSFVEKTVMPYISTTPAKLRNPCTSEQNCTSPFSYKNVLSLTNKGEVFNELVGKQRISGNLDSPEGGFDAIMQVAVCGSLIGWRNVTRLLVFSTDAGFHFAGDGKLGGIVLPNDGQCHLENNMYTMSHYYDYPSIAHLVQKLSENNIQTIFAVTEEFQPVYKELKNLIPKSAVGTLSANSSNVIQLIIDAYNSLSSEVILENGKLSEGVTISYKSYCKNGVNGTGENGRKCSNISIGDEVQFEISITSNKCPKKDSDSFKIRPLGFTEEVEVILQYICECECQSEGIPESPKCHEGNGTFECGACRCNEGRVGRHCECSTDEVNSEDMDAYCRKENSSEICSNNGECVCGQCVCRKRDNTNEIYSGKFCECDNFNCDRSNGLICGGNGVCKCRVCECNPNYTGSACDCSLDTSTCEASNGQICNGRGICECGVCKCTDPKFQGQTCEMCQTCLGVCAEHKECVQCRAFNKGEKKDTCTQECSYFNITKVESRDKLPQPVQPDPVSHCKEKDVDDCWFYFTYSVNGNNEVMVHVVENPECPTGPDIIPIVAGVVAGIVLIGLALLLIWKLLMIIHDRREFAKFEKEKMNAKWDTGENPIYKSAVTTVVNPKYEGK

What was measured:
[1] = biological target: Focal Adhesion Kinase (human (endogenous in SK-N-SH)) (UniProt Q05397); assay: co-IP; endogenous proteins of SK-N-SH cells; cells incubated 1 h with rhNTN1 in serum-free DMEM (25 ng/ml for NEO1-FAK; 200 ng/ml in the methods, 100 ng/ml in the results, for NEO1-integrin β1; treatment not told for FAK-integrin β1); extracts in 20 mM Tris pH 7.4, 150 mM NaCl, 1% NP-40; anti-FAK, anti-NEO1 or anti-integrin β1 on Dynabeads protein A, 1 h; Western blot
[2] = biological target: integrin β1 (human (endogenous in SK-N-SH)) (UniProt P05556); assay: as above

- binding [1]: binds
- binding [2]: binds
B1: Neogenin-1 (receptor, UniProt Q92859 34-1461)
chain: ARSGSAPQSPGASIRTFTPFYFLVEPVDTLSVRGSSVILNCSAYSEPSPKIEWKKDGTFLNLVSDDRRQLLPDGSLFISNVVHSKHNKPDEGYYQCVATVESLGTIISRTAKLIVAGLPRFTSQPEPSSVYAGNNAILNCEVNADLVPFVRWEQNRQPLLLDDRVIKLPSGMLVISNATEGDGGLYRCVVESGGPPKYSDEVELKVLPDPEVISDLVFLKQPSPLVRVIGQDVVLPCVASGLPTPTIKWMKNEEALDTESSERLVLLAGGSLEISDVTEDDAGTYFCIADNGNETIEAQAELTVQAQPEFLKQPTNIYAHESMDIVFECEVTGKPTPTVKWVKNGDMVIPSDYFKIVKEHNLQVLGLVKSDEGFYQCIAENDVGNAQAGAQLIILEHAPATTGPLPSAPRDVVASLVSTRFIKLTWRTPASDPHGDNLTYSVFYTKEGIARERVENTSHPGEMQVTIQNLMPATVYIFRVMAQNKHGSGESSAPLRVETQPEVQLPGPAPNLRAYAASPTSITVTWETPVSGNGEIQNYKLYYMEKGTDKEQDVDVSSHSYTINGLKKYTEYSFRVVAYNKHGPGVSTPDVAVRTLSDVPSAAPQNLSLEVRNSKSIMIHWQPPAPATQNGQITGYKIRYRKASRKSDVTETLVSGTQLSQLIEGLDRGTEYNFRVAALTINGTGPATDWLSAETFESDLDETRVPEVPSSLHVRPLVTSIVVSWTPPENQNIVVRGYAIGYGIGSPHAQTIKVDYKQRYYTIENLDPSSHYVITLKAFNNVGEGIPLYESAVTRPHTDTSEVDLFVINAPYTPVPDPTPMMPPVGVQASILSHDTIRITWADNSLPKHQKITDSRYYTVRWKTNIPANTKYKNANATTLSYLVTGLKPNTLYEFSVMVTKGRRSSTWSMTAHGTTFELVPTSPPKDVTVVSKEGKPKTIIVNWQPPSEANGKITGYIIYYSTDVNAEIHDWVIEPVVGNRLTHQIQELTLDTPYYFKIQARNSKGMGPMSEAVQFRTPKADSSDKMPNDQASGSGGKGSRLPDLGSDYKPPMSGSNSPHGSPTSPLDSNMLLVIIVSVGVITIVVVVIIAVFCTRRTTSHQKKKRAACKSVNGSHKYKGNSKDVKPPDLWIHHERLELKPIDKSPDPNPIMTDTPIPRNSQDITPVDNSMDSNIHQRRNSYRGHESEDSMSTLAGRRGMRPKMMMPFDSQPPQPVISAHPIHSLDNPHHHFHSSSLASPARSHLYHPGSPWPIGTSMSLSDRANSTESVRNTPSTDTMPASSSQTCCTDHQDPEGATSSSYLASSQEEDSGQSLPTAHVRPSHPLKSFAVPAIPPPGPPTYDPALPSTPLLSQQALNHHIHSVKTASIGTLGRSRPPMPVVVPSAPEVQETTRMLEDSESSYEPDELTKEMAHLEGLMKDLNAITTA
